According to PMC10587169, “Tuning aminopolycarboxylate chelators for efficient complexation of trivalent actinides” (Scientific Reports, 2023):

Key:
[1] = Luminescence lifetime measurements, ligand-induced metal dehydration; settings: Eu3+ and H4pypa-peg mixture
[2] = Slope analysis of liquid-liquid distribution data, ligand-to-metal stoichiometry; assay type: binding; settings: all collected distribution data
[3] = Competitive complexation liquid-liquid extraction with HDEHP; assay type: binding; settings: slope analysis
Procedure: Stability constants for the coordination of Eu^3+, Am^3+, Cm^3+, and Cf^3+ were also achieved by monitoring the suppression of liquid–liquid partitioning of the radiotracer due to the increasing presence of an aqueous complexant. Aqueous solutions were prepared containing sub-millimolar amounts of ligand while maintaining p[H^+] at 1.7, 1.8, 1.9, 2.0, and 2.1. Ionic strength was maintained at 2.00 M using sodium perchlorate. Aqueous complexation was balanced with the appropriate choice of HDEHP concentration in octane to allow accurate quantification of metal distribution. Non-aqueous phases were pre-equilibrated three times with 2.00 M NaClO4 at the corresponding p[H^+]. Preliminary time-dependent studies indicated the phase transfer equilibrium was attained for all measurements with H4octapa and H4pypa-peg (Figures S2 and S3 in the SI). For the mixtures traced with radioisotopes, the activity was measured using gamma spectroscopy (ORTEC GEM50P4 coaxial HPGe detector, DSPEC gamma spectrometer) for ^154Eu (123.07 keV), ^243Am (74.66 keV), and ^249Cf (388.17 keV) and liquid scintillation counting (Perkin Elmer Tri-Carb 3180 TR/SL) for ^248Cm. […]
Liquid–liquid partitioning of trivalent f-elements was monitored in presence of H4octapa and H4pypa-peg using a strong liquid cation exchanger, bis–(2-ethylhexyl)phosphoric acid, HDEHP. […]

SMILES | calculated hydration number ηH2O (± 0.5) from τ1 ([1]; p[H+] 1.54) | Luminescence lifetime decay τ1 ([1]; p[H+] 1.54, I = 2.00 M (H+,Na+)ClO4) [μs] | calculated hydration number ηH2O (± 0.5) from τ1 ([1]; p[H+] 1.99) | calculated hydration number ηH2O (± 0.5) from τ2 ([1]; p[H+] 1.99) | Luminescence lifetime decay τ1 ([1]; p[H+] 1.99, biexponential fit) [μs] | Luminescence lifetime decay τ2 ([1]; p[H+] 1.99, biexponential fit) [μs] | Luminescence lifetime decay τ1 ([1]; p[H+] 4.70) [μs] | calculated hydration number ηH2O (± 0.5) from τ1 ([1]; p[H+] 4.70) | average ligand-to-metal stoichiometry [2] | stoichiometry for the extraction of trivalent metal ion by HDEHP ([3]; 249Cf3+, for H4octapa (SI Figure S10B)) | stoichiometry for the extraction of trivalent metal ion by HDEHP ([3]; for H4pypa-peg (SI Figure S11B))
O=C(O)CN(Cc1cc(-c2cn(CCOCCOCCO)nn2)cc(CN(CC(=O)O)Cc2cccc(C(=O)O)n2)n1)Cc1cccc(C(=O)O)n1 [H4pypa-peg, 6,6'-((((4-(1-(2-(2-(2-hydroxyethoxy)ethoxy)ethyl)-1H-1,2,3-triazol-4-yl)pyridine-2,6-diyl)bis–(methylene))bis–((carboxymethyl)azanediyl))bis–(methylene)) dipicolinic acid] | 1.7 | 482.9 | 2.2 | 1.4 | 401.5 | 557.9 | 879.7 | 0.8 | 1.00 ± 0.03 |  | 
O=C(O)CN(CCN(CC(=O)O)Cc1cccc(C(=O)O)n1)Cc1cccc(C(=O)O)n1 [H4octapa, 6,6′-((ethane-1,2-diylbis–((carboxymethyl)azanediyl))bis–(methylene))dipicolinic acid] |  |  |  |  |  |  |  |  | 1.00 ± 0.04 |  | 
CCCCC(CC)COP(=O)(O)OCC(CC)CCCC (stereo not drawn) [HDEHP, Bis(2-ethylhexyl)phosphoric acid] |  |  |  |  |  |  |  |  |  | 2.85 ± 0.03 | 2.78 ± 0.13
